Laboratory results from publication PMC7618200 (The Biochemical journal, 2025).
No constants are given. Whether binding was seen depends on the method and setting. Binding seen in cells or lysates may run through a third protein.

Amino acid sequences for entries named in this document (tags omitted). A change or cut given only in a name is not applied to a line headed by its entry.
UniProt Q9BQF6: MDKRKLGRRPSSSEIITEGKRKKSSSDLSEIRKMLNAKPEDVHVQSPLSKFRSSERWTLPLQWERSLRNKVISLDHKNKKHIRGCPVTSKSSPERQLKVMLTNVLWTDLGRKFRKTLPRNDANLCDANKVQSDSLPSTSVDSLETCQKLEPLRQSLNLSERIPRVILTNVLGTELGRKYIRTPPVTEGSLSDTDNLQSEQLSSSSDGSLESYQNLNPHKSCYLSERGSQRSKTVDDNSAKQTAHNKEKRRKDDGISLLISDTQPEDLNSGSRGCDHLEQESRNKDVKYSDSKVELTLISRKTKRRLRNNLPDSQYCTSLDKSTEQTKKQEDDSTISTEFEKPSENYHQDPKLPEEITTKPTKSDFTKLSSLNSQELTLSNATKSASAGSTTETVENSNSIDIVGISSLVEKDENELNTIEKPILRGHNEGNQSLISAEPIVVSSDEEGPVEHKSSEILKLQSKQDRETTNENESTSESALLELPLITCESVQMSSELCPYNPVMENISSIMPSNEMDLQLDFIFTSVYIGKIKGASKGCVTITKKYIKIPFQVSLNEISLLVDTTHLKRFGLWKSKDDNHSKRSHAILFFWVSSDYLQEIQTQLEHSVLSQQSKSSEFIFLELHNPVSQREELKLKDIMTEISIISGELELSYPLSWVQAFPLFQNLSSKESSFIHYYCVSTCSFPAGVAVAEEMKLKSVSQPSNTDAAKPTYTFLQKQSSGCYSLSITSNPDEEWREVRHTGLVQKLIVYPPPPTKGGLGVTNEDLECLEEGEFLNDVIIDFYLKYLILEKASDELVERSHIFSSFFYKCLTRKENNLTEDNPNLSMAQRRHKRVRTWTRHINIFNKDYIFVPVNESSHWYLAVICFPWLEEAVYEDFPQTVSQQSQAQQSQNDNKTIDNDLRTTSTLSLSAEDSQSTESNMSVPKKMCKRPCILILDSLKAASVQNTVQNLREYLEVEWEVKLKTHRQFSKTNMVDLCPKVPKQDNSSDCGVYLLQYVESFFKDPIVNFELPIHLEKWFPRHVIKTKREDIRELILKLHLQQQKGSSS
UniProt O43791: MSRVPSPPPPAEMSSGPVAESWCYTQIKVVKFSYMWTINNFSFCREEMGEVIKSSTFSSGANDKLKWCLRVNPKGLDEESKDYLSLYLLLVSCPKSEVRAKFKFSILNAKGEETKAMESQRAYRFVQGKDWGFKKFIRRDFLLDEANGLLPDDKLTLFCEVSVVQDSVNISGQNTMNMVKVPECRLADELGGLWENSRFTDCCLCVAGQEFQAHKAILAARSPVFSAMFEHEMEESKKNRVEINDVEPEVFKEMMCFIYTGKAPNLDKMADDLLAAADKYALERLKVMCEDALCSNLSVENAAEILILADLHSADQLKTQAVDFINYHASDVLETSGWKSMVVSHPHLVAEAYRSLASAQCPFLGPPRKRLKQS

Molecular target: FLAG-tagged SENP7 with the Q-motif mutated (human) (UniProt Q9BQF6)
Test: co-IP; anti-FLAG M2 agarose IP from NP-40 lysates of HEK293T cells overexpressing 2× FLAG-tagged protein; cells treated with 5 μM MLN4924 for 6 hours; immunoblot

## endogenous SPOP (speckle-type BTB/POZ protein) (from UniProt O43791 1-374)
  binding: no binding
